Experimental data taken from PubChem BioAssay AID662 (National Center for Advancing Translational Sciences (NCATS), 2007).
This is one part of the list. Further columns of the screen follow, without active or inactive calls. Most of these compounds were active or inconclusive in the main read-out, so they are no random draw. Potencies come from curve fits of mixed quality, noted in brackets.

experiment: Cell signaling CRE-BLA (Fsk stim); settings: CHO CRE-bla reporter (cAMP response element driving beta-lactamase), forskolin EC10, beta-lactamase ratio; measured here: 460 nm blue channel
In short: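 Using CellSensor CRE-bla CHO cells in Opti-MEM with 0.5% dialyzed FBS, compounds were titrated with EC10 NKH 477 for 3 h at 37 °C. CCF4 ratio (460/530 nm) gave %Activity; AC50 derived.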

Row | Compound | AC50
1 | Cc1cc(NC(=O)CSc2nc(C(C)C)nc3sc(C)c(C)c23)no1 | 12.6 µM [rising, partial curve]
2 | COc1ccc(S(=O)(=O)CCC(=O)Nc2c(C)n(C)n(-c3ccccc3)c2=O)cc1 | 0.501 µM [falling, full curve]
3 | CCOc1ccc(-c2nnc(N)o2)cc1 | 5.01 µM [falling, single point]
4 | COc1ccc(-c2nc(C#N)c(NCc3ccc(C)cc3)o2)cc1OC | 2 µM [rising, full curve]
5 | COc1cccc(C2=NOC(C(=O)Nc3cc(C)nn3-c3ccccc3)C2)c1OC (stereo not drawn) | 2.51 µM [rising, full curve]
6 | CCN(CC)CCNC(=O)NC1CCCCC1 | 0.126 µM [rising, full curve]
7 | COc1ccccc1-c1cc(C(=O)N2CCc3ccccc3C2)no1 | 12.6 µM [falling, single point]
8 | COc1ccc2cc3c(N)c(C(=O)NCc4ccco4)sc3nc2c1 | 12.6 µM [rising, partial curve]
9 | CCOC(=O)c1ccccc1NC(=O)CN1CCC(n2nnc3cc(F)ccc32)CC1 | 2.51 µM [rising, partial curve]
10 | CCc1nc2ccc(C(=O)NCc3ccco3)cc2nc1CC | 12.6 µM [rising, partial curve]
11 | CCCCn1c(SCC(=O)OCC)nc2c1c(=O)[nH]c(=O)n2C | 5.01 µM [rising, partial curve]
12 | O=C1CCN(S(=O)(=O)c2ccccc2)C2CCCCC12 (stereo not drawn) | 12.6 µM [falling, partial curve]
13 | COc1ccc(Nc2nc(N3CCCC3)nc3ccccc23)c(OC)c1 | 2.51 µM [rising, full curve]
14 | O=c1c(-c2cccc(F)c2)nc2cncnc2n1Cc1ccccc1 | 12.6 µM [rising, single point]
15 | CCc1nc(N)c(C#N)c(-c2cccn2C)c1C | 12.6 µM [rising, partial curve]
16 | COc1ccccc1NC(=O)COc1ccc(/C=N/n2cnnc2)cc1OC | 1 µM [rising, full curve]
17 | C=CCn1c(SCC(=O)OCc2ccccc2)nc2c1c(=O)n(C)c(=O)n2C | 10 µM [rising, partial curve, poor fit]
18 | CC(C)c1cccc2nc3c(c([Si](C)(C)C(C)(C)C)c12)Cn1c-3cccc1=O | 15.8 µM [rising, partial curve]
19 | Cn1c(NC(=O)C2c3ccccc3Oc3ccccc32)cc(=O)n(C)c1=O | 0.126 µM [rising, full curve, poor fit]
20 | COc1ccc(Oc2ncc3nc(-c4ccc(F)cc4)c(=O)n(CCC#N)c3n2)cc1 | 15.8 µM [rising, partial curve]
21 | CCOc1cc(N2CCOCC2)c(OCC)cc1NC(=O)Cc1ccc(OC)c(OC)c1 | 5.01 µM [falling, single point]
22 | Cn1c(=O)[nH]c(=O)c2c1nc(CN1CCOCC1)n2Cc1ccc(F)cc1 | 7.94 µM [rising, partial curve]

Row | Compound | AC50
23 | COc1cccc2c(=O)n(CC(=O)NC3CCCC3)ccc12 | 10 µM [rising, single point]
24 | COc1ccc(Cc2nnc(Nc3ccc(C)cc3C)[nH]c2=O)cc1 | 0.00631 µM [falling, full curve, poor fit]
25 | CCN(C(=O)COC(=O)c1cc(C)n(-c2ccc(F)cc2)c1C)C1CCS(=O)(=O)C1 (stereo not drawn) | 12.6 µM [rising, single point]
26 | CCOC(=O)c1[nH]c2cc3c(cc2c1CCCN1C(=O)c2ccccc2C1=O)OCCO3 | 12.6 µM [rising, partial curve]
27 | CCCn1c(C)nc2c(NCCCN(CCO)CCO)nc(C)nc21 | 10 µM [rising, partial curve]
28 | O=c1c(-c2ccc(Cl)cc2)nc2cnc(N3CCOCC3)nc2n1Cc1ccc(F)cc1 | 12.6 µM [rising, partial curve]
29 | Cn1c(=O)n(Cc2ccccc2)c(=O)c2c1nc1n2CCCN1C1CCCCC1 | 1.58 µM [rising, partial curve]
30 | CC1=C(C(=O)OCc2ccccc2)C(c2ccco2)C2=C(CC(C)(C)CC2=O)N1 (stereo not drawn) | 25.1 µM [falling, single point]
31 | O=C(Nc1ccc(Cl)cc1F)C1CCN(S(=O)(=O)c2cccnc2)CC1 | 3.16 µM [falling, partial curve]
32 | CCOc1ccc(N2C(=O)CC(/C=C3/N(C)c4ccccc4C3(C)C)C2=O)cc1 (stereo not drawn) | 0.1 µM [rising, full curve, poor fit]
33 | COC(=O)C1=C(C)NC(=O)NC1c1ccccc1 (stereo not drawn) | 3.16 µM [falling, partial curve]
34 | c1cnc(N2CCN(Cc3c[nH]c4ccccc34)CC2)nc1 | 25.1 µM [falling, single point]
35 | COc1ccccc1N1CCN(c2cc(=O)n(-c3ccccc3Cl)c(=O)[nH]2)CC1 | 5.01 µM [rising, single point]
36 | CCOC(=O)c1c(C)c(C(=O)Nc2ccc(N(C)C)cc2)c(C)n1CC | 10 µM [rising, partial curve]
37 | CC(NC(=O)COc1cc(=O)n(C)c2ccccc12)c1ccc2c(c1)OCCO2 (stereo not drawn) | 6.31 µM [rising, partial curve]
38 | COc1ccc(S(=O)(=O)CCC(=O)N2c3ccccc3CC2C)cc1 (stereo not drawn) | 0.501 µM [falling, full curve]
39 | CCCc1cc(=O)oc2cc3occ(C)c3cc12 | 12.6 µM [rising, partial curve]
40 | Cc1ccc2nc3c(cc(C(=O)NCc4ccccc4)c(=N)n3CCCn3ccnc3)c(=O)n2c1 | 15.8 µM [rising, single point]
41 | Cc1nn(CC(O)Cn2cnc3c2c(=O)n(C)c(=O)n3C)c(C)c1Br (stereo not drawn) | 0.00398 µM [falling, full curve, poor fit]
42 | Cc1cc(=O)oc2cc(Oc3ncccn3)ccc12 | 0.794 µM [rising, full curve]
43 | O=c1c2c3c(sc2n(CCN2CCOCC2)c(=O)n1Cc1ccco1)CCCCC3 | 10 µM [rising, partial curve]

Retrieved by compound from the entries so far, 2 records:
Row | Compound | AC50
42 | Cc1cc(=O)oc2cc(Oc3ncccn3)ccc12 | 0.794 µM [rising, full curve]
34 | c1cnc(N2CCN(Cc3c[nH]c4ccccc34)CC2)nc1 | 25.1 µM [falling, single point]
